Results are given in words; binding and its absence hold for the method and conditions named. Binding seen in cells or lysates may run through a third protein. Some binding calls cover weakened binding; strength is not graded here.

Sequences of proteins named here, by UniProt entry; tags and fusion partners are left off. Residues count along the entry.
UniProt Q01299, residues 2512-3414: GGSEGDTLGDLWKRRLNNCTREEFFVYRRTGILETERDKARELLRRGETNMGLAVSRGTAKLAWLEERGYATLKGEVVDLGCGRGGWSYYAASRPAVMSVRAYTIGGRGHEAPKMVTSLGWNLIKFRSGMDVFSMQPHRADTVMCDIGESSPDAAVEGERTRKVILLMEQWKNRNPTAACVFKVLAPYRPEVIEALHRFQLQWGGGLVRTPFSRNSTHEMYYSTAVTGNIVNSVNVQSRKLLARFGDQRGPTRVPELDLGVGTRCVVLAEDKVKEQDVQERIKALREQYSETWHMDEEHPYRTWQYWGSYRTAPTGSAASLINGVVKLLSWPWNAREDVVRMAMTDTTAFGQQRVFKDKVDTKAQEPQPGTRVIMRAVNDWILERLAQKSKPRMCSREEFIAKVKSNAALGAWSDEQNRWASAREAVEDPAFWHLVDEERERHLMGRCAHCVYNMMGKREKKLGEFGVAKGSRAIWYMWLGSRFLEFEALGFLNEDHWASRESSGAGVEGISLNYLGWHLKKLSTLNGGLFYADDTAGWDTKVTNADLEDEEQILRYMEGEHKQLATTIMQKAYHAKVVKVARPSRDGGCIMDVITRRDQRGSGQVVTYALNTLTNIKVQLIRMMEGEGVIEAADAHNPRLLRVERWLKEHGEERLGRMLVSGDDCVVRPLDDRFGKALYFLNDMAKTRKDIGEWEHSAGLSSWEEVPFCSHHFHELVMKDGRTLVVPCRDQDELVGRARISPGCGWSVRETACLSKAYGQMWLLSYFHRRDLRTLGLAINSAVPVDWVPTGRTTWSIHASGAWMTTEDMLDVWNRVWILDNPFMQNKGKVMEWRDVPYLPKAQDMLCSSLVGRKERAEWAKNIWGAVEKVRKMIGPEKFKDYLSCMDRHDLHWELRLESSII
UniProt Q16637: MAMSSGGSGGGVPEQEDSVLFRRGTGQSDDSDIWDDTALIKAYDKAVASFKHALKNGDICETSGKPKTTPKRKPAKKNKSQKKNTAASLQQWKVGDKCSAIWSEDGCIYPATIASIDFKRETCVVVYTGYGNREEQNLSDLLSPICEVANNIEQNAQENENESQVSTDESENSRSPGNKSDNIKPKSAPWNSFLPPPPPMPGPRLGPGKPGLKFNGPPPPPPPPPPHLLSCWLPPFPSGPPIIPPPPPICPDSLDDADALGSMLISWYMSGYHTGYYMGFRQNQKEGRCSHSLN
UniProt P29597: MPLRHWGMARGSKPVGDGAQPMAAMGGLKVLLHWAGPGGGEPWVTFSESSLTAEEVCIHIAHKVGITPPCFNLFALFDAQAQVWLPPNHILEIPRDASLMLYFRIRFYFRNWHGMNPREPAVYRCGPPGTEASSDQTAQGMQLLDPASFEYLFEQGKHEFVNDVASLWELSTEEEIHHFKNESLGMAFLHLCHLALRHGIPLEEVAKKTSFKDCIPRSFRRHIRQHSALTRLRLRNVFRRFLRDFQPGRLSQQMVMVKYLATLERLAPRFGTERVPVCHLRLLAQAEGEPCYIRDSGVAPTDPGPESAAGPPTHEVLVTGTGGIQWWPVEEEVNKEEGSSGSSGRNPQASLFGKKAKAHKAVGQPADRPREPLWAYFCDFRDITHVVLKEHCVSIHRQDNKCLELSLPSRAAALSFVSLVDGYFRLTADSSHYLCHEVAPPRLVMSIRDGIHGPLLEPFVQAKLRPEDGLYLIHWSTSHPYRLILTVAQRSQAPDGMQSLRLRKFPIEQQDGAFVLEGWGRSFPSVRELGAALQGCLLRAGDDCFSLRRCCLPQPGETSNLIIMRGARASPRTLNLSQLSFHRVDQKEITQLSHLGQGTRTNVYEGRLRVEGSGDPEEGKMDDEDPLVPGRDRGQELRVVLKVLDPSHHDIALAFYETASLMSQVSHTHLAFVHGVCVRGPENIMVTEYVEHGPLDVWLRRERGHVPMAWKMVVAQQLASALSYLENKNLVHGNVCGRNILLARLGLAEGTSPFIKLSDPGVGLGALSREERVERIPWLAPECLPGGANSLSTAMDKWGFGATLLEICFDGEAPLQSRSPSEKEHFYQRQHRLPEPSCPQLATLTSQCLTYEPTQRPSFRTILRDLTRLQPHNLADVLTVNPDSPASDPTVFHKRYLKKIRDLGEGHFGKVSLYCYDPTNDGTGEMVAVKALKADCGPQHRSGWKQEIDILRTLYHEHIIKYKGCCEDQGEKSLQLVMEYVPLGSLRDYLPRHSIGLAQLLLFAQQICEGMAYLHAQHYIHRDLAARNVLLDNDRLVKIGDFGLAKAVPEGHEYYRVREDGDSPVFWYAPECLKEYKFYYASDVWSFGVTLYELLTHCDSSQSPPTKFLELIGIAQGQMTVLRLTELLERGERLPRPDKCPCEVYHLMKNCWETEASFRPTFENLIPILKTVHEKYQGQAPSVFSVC

The assay deals with FLAG-tagged wild-type TBEV NS5 (tick-borne encephalitis virus (strain of the cDNA not stated)) (UniProt Q01299). Briefly: co-IP.

In the case of SMN1 (from UniProt Q16637 1-294), the binding entry is given as “binds”. As for TYK2 (from UniProt P29597 1-1187), the binding entry is reported as “binds”.

These data come from paper PMC13595970.
